Test results from patent US20250136612A1, “4',5'-DIHYDROSPIRO[PIPERIDINE-4,7'-THIENO[2,3-C]PYRAN] DERIVATIVES AS INHIBITORS OF APOL1 AND METHODS OF USING SAME” (VERTEX PHARMACEUTICALS INCORPORATED, priority 2022, published 2025).

Amino acid sequences for entries named in this document (tags omitted).
UniProt O14791, whole entry S342G/I384M: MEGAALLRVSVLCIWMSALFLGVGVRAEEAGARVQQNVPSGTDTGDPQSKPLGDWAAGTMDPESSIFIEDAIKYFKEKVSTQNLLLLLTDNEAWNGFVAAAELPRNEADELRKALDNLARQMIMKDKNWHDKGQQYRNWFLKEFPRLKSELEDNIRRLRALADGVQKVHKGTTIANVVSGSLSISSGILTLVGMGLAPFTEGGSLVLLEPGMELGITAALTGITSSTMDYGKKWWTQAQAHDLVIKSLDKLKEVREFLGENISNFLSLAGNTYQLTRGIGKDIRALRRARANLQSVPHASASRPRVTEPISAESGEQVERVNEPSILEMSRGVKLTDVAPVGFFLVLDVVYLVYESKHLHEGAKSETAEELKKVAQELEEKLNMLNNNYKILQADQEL

Biological target: APOL1 (Homo sapiens, UniProt O14791)
Test: MultiTox-Fluor Multiplex Cytotoxicity Assay in tet-inducible APOL1 T-REx-HEK293 cells
Conditions: read-out: IP50 (i.e., IC50 for cell proliferation), 50 ng/mL tet, 24 hours, ratio of dead to live cells
Experimental: The MultiTox-Fluor Multiplex Cytotoxicity Assay is a single-reagent-addition, homogeneous, fluorescence assay that measures the number of live and dead cells simultaneously in culture wells. The assay measures cell viability and cytotoxicity by detecting two distinct protease activities. The live-cell protease activity is restricted to intact viable cells and is measured using a fluorogenic, cell-permeant peptide glycyl-phenylalanylamino fluorocoumarin (GF-AFC) substrate. The substrate enters intact cells, where it is cleaved to generate a fluorescent signal proportional to the number of living cells. […]
Briefly, the tet-inducible transgenic APOL1 T-REx-HEK293 cell lines were incubated with 50 ng/mL tet to induce APOL1 in the presence of 3-(2-(4-fluorophenyl)-1H-indol-3-yl)-N-((3S,4R)-4-hydroxy-2-oxopyrrolidin-3-yl)propenamide at 10.03, 3.24, 1.13, 0.356, 0.129, 0.042, 0.129, 0.0045, 0.0015, 0.0005 μM in duplicate for 24 hours in a humidified 37° C. incubator. […] The plate was read on the EnVision plate reader. A ratio of dead to live cells was used to normalize, and data was imported, analyzed, and fit using Genedata Screener (Basel, Switzerland) software. […]
Assay ready plates from the Global Compound Archive were ordered using template 384_APOL1Cell_DR10n2_50 uM_v3. […]

CCc1cc2c(s1)CCO[C@]21CCN[C@H](c2cnn(C)c2)C1
IC50: < 100 nM

The structures given here were assigned with low confidence; some may be wrong.
